This is an account of results in paper PMC4221739.

Amino acid sequences for entries named in this document (tags omitted). A change or cut given only in a name is not applied to a line headed by its entry.
UniProt P23258: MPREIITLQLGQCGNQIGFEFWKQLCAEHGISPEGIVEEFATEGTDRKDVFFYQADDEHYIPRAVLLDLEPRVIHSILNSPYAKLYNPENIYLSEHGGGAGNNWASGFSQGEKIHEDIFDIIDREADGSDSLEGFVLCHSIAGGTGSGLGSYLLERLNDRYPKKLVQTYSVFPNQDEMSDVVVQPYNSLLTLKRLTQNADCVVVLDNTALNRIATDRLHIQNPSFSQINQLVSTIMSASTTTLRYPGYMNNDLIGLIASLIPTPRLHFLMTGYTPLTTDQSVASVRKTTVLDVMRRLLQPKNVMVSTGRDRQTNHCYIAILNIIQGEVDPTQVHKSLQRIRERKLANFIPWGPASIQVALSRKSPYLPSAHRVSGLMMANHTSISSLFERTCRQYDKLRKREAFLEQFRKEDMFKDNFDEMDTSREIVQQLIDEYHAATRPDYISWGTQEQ

Results are given in words; binding and its absence hold for the method and conditions named. Binding seen in cells or lysates may run through a third protein. For some assays here: Binding can be weak; no strength is given. Sequences can lack the tags named with a protein.

The target of test [1] is T1, full-length SF-Dlg3 (Streptavidin-Flag-tagged Dlg3) (UniProt P70175).
T1 sequence: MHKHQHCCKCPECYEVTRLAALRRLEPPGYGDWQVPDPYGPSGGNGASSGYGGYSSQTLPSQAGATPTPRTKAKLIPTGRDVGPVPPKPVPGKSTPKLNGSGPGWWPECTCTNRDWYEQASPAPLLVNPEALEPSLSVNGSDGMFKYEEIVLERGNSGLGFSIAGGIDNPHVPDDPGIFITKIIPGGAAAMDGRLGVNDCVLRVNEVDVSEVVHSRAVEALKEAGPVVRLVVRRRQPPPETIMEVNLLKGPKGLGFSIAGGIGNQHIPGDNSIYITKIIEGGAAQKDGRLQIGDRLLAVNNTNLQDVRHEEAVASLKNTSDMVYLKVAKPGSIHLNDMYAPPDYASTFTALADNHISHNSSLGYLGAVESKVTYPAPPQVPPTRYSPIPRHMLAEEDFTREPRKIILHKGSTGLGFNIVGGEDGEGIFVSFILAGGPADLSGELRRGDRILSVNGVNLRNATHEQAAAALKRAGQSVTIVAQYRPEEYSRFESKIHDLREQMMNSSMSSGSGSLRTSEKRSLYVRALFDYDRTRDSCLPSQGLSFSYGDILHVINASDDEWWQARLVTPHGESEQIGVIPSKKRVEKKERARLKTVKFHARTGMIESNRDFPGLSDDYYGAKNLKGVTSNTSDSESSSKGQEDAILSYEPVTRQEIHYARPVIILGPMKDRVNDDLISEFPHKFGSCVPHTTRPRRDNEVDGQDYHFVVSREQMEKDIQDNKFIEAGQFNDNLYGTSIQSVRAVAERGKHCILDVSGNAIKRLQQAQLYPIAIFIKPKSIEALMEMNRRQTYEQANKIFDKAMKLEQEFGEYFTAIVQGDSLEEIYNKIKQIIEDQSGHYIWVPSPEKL
The test can be described thus: co-IP; SF-tagged Dlg3 variants precipitated on Strep-Tactin resin (Strep-IP) from lysates of serum starved, ciliated HEK293T cells co-transfected with Fltp-myc variants; lysis buffer 50 mM Tris/HCl pH 7.4, 150 mM NaCl, 2 mM EDTA, 1% Nonidet P-40; 1 hr at 4°C; desthiobiotin elution; western blot. For orientation: In western blotting, separated proteins are transferred to a membrane and probed.

Test [2] deals with T1, full-length SF-Dlg3 (Streptavidin-Flag-tagged Dlg3). The test can be described thus: co-IP; Strep-IP of SF Fltp and SF Dlg3 from lysates of transfected HEK293T cells; endogenous Dvl2 and γ-Tubulin detected by western blot; lysis buffer 50 mM Tris/HCl pH 7.4, 150 mM NaCl, 2 mM EDTA, 1% Nonidet P-40; 1 hr at 4°C.
The target in test [3] is T2, SF full-length Fltp (Strep-Flag-tagged Flattop) (mouse) (UniProt Q6P8X9).
T2 sequence: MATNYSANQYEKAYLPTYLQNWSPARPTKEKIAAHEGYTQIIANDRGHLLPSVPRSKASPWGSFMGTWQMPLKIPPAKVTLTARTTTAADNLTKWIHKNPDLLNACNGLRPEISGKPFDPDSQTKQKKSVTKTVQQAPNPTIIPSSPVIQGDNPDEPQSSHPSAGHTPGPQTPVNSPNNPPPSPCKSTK
Described as above.

The target in another test is SF-Dlg3ΔSH3 (UniProt P70175). The test can be described thus: co-IP; SF-tagged Dlg3 variants precipitated on Strep-Tactin resin (Strep-IP) from lysates of serum starved, ciliated HEK293T cells co-transfected with Fltp-myc variants; lysis buffer 50 mM Tris/HCl pH 7.4, 150 mM NaCl, 2 mM EDTA, 1% Nonidet P-40; 1 hr at 4°C; desthiobiotin elution; western blot.
The target in another test is SF-Dlg3ΔPDZ (UniProt P70175). Described as above.

On to “FΔNT (Fltp-myc variant lacking the N-terminus) (mouse) (domain or fragment)”, for which the binding entry in test [1] was “no binding”. Consider “γ-Tubulin, endogenous (from UniProt P23258)”, for which the binding result in test [2] and in test [3] was “binds” each time.

B1: full-length Fltp-myc (Flattop, myc-tagged) (protein, UniProt Q6P8X9 1-189)
chain: MATNYSANQYEKAYLPTYLQNWSPARPTKEKIAAHEGYTQIIANDRGHLLPSVPRSKASPWGSFMGTWQMPLKIPPAKVTLTARTTTAADNLTKWIHKNPDLLNACNGLRPEISGKPFDPDSQTKQKKSVTKTVQQAPNPTIIPSSPVIQGDNPDEPQSSHPSAGHTPGPQTPVNSPNNPPPSPCKSTK
On to B1, for which the binding result in the test with SF-Dlg3ΔSH3 and with SF-Dlg3ΔPDZ was “binds” in each case.
